Some entries share one result that the patent states for a list of compounds.
Key:
[1] = tested on: Small brown plant hopper (Laodelphax striatellus); experiment: Insecticidal test on small brown plant hopper, rice seedling dip; type: in vivo; conditions: 500 ppm, rice seedlings dipped 30 seconds, 3rd-instar larvae, 8 days after inoculation
[2] = tested on: Green peach aphid (Myzus persicae); experiment: Test for control efficacy on green peach aphid, foliar application on potted Chinese cabbage; type: in vivo; conditions: 500 ppm, 6 days after application
[3] = tested on: Diamondback moth (Plutella xylostella); experiment: Insecticidal test on diamondback moth, dip of Chinese cabbage seedlings with laid eggs; type: in vivo; conditions: 500 ppm, dip about 30 seconds, 25° C., 6 days after dip treatment, hatched larvae counted
Excerpt: Insecticidal Test on Diamondback Moth (Plutella xylostella)
Adults of diamondback moth were released onto Chinese cabbage seedlings and allowed to lay eggs thereon. At 2 days after the release of the adults, the Chinese cabbage seedlings with laid eggs were dipped for about 30 seconds in agrochemical dispersions diluted to 500 ppm, each of which contained a different benzimidazole compound represented by the general formula (1) of the present invention or salt thereof as an active ingredient. After air-dried, the seedlings were kept in a thermostatic chamber at 25° C. At 6 days after the dip treatment, the number of hatched larvae per plot was counted, the corrected mortality rate was calculated according to the formula shown below, and the insecticidal efficacy was evaluated according to the criteria of Test Example 2. This test was conducted in triplicate using 10 adults of diamondback moth per plot. Corrected mortality rate (%)=(Number of hatched larvae in a non-treatment plot−Number of hatched larvae in a treatment plot)/(Number of hatched larvae in a non-treatment plot)×100 [Expression 3]

[4] = tested on: Dog heartworm (Dirofilaria immitis) L-1 stage larvae; experiment: Impact evaluation test on larvae motility of dog heartworm, 96-well plate; conditions: final concentration 50 ppm, 3 days
[5] = tested on: Haemonchus nematode (Haemonchus contortus) L-1 stage larvae; experiment: Impact evaluation test on larvae motility of Haemonchus nematode, 96-well plate; conditions: final concentration 50 ppm, 4 days

| SMILES | control efficacy (control rate) activity level [2] | insecticidal efficacy (corrected mortality rate) activity level [3] | also measured |
| --- | --- | --- | --- |
| CCS(=O)(=O)n1c(-c2ccc(OCC(F)(F)C(F)(F)F)nc2)nc2ccc(Br)cc21 [Compound 1-10] | A (the control rate is 100%.) | A (the corrected mortality rate is 100%.) | insecticidal efficacy (corrected mortality rate) activity level [1]: A (the corrected mortality rate is 100%.) |
| O=S(=O)(C1CC1)n1c(-c2ccc(OCC(F)(F)C(F)(F)F)nc2)nc2ccccc21 [Compound 1-6] |  | A (the corrected mortality rate is 100%.) |  |
| CCS(=O)(=O)n1c(-c2ccc(OCC(F)(F)C(F)(F)F)nc2)nc2cc(Br)ccc21 [Compound 1-9] | A (the control rate is 100%.) | A (the corrected mortality rate is 100%.) | corrected motility impediment rate activity level [4]: A (the corrected motility impediment rate is 100%); corrected motility impediment rate activity level [5]: A (the corrected motility impediment rate is 100%) |
| CCS(=O)(=O)n1c(-c2ccc(OCC(F)(F)C(F)F)nc2)nc2ccccc21 [Compound 1-19] |  | A (the corrected mortality rate is 100%.) |  |
| CCS(=O)(=O)n1c(-c2ccc(OC(C)C)nc2)nc2ccccc21 [Compound 5-2] |  | A (the corrected mortality rate is 100%.) |  |
| CCS(=O)(=O)n1c(-c2ccc(Oc3ccc(S(=O)(=O)C(F)(F)F)cc3)nc2)nc2ccccc21 [Compound 1-42] | A (the control rate is 100%.) | A (the corrected mortality rate is 100%.) |  |
| CCS(=O)(=O)n1c(-c2ccc(OCC(F)(F)C(F)C(F)(F)F)nc2)nc2ccccc21 (stereo not shown) [Compound 1-24] | A (the control rate is 100%.) | A (the corrected mortality rate is 100%.) |  |
| CCCCN(CCCC)c1ccc(-c2nc3ccccc3n2S(=O)(=O)CC)cn1 [Compound 5-24] | A (the control rate is 100%.) | A (the corrected mortality rate is 100%.) |  |
| CCS(=O)(=O)n1c(-c2ccc(OCC(F)(F)C(F)(F)F)nc2)nc2cc(Cl)c(Cl)cc21 [Compound 1-14] |  | A (the corrected mortality rate is 100%.) |  |
| CCS(=O)(=O)n1c(-c2ccc(SC3CCCCC3)nc2)nc2ccccc21 [Compound 5-19] |  | A (the corrected mortality rate is 100%.) |  |
| CCS(=O)(=O)n1c(-c2ccc(OCC(F)(F)C(F)(F)C(F)(F)F)nc2)nc2cc(Br)ccc21 [Compound 1-21] |  | A (the corrected mortality rate is 100%.) |  |
| CCS(=O)(=O)n1c(-c2ccc(OCC(F)(F)C(F)(F)F)nc2)nc2cc(C)c(C)cc21 [Compound 1-17] |  | A (the corrected mortality rate is 100%.) |  |
| CCS(=O)(=O)n1c(-c2ccc(Oc3ccc([S+]([O-])C(F)(F)F)cc3)nc2)nc2ccccc21 (stereo not shown) [Compound 1-41] | A (the control rate is 100%.) | A (the corrected mortality rate is 100%.) |  |
| CCS(=O)(=O)n1c(-c2ccc(OCC(F)(F)C(F)(F)F)nc2)nc2cc(Br)c(Br)cc21 [Compound 1-15] |  | A (the corrected mortality rate is 100%.) | corrected motility impediment rate activity level [4]: A (the corrected motility impediment rate is 100%); corrected motility impediment rate activity level [5]: A (the corrected motility impediment rate is 100%) |
| CCS(=O)(=O)n1c(-c2ccc(Oc3ccc(SC(F)(F)F)cc3)nc2)nc2ccccc21 [Compound 1-40] |  | A (the corrected mortality rate is 100%.) | corrected motility impediment rate activity level [4]: A (the corrected motility impediment rate is 100%); corrected motility impediment rate activity level [5]: A (the corrected motility impediment rate is 100%) |
| CCS(=O)(=O)n1c(-c2ccc(OCc3ccc([S+]([O-])C(F)(F)F)cc3)nc2)nc2ccccc21 (stereo not shown) [Compound 1-44] |  | A (the corrected mortality rate is 100%.) |  |

| SMILES | control efficacy (control rate) activity level [2] | insecticidal efficacy (corrected mortality rate) activity level [3] | also measured |
| --- | --- | --- | --- |
| CCS(=O)(=O)n1c(-c2cncc(OCC(F)(F)C(F)(F)F)c2)nc2ccccc21 [Compound 3-1] |  | A (the corrected mortality rate is 100%.) |  |
| O=S(=O)(CCl)n1c(-c2ccc(OCC(F)(F)C(F)(F)F)nc2)nc2ccccc21 [Compound 1-45] |  | A (the corrected mortality rate is 100%.) |  |
| CCS(=O)(=O)n1c(-c2cnc(OCC(F)(F)C(F)F)c(Cl)c2)nc2ccccc21 [Compound 5-10] |  | A (the corrected mortality rate is 100%.) |  |
| CCS(=O)(=O)n1c(-c2ccc(OCC(F)(F)C(F)(F)F)nc2)nc2cc(Cl)ccc21 [Compound 1-12] |  | A (the corrected mortality rate is 100%.) | insecticidal efficacy (corrected mortality rate) activity level [1]: A (the corrected mortality rate is 100%.) |
| CCS(=O)(=O)n1c(-c2ccc(OCC(F)(F)C(F)(F)C(F)(F)F)nc2)nc2ccc(Br)cc21 [Compound 1-22] |  | A (the corrected mortality rate is 100%.) |  |
| O=S(=O)(n1c(-c2ccc(OCC(F)(F)C(F)(F)F)nc2)nc2ccccc21)C(F)(F)F [Compound 1-7] |  | A (the corrected mortality rate is 100%.) | insecticidal efficacy (corrected mortality rate) activity level [1]: A (the corrected mortality rate is 100%.) |
| CS(=O)(=O)n1c(-c2ccc(OCC(F)(F)C(F)(F)F)nc2)nc2ccccc21 [Compound 1-3] | A (the control rate is 100%.) | A (the corrected mortality rate is 100%.) |  |
| CCS(=O)(=O)n1c(-c2ccc(OC(C(F)(F)F)C(F)(F)F)nc2)nc2ccccc21 [Compound 1-23] |  | A (the corrected mortality rate is 100%.) |  |
| CCS(=O)(=O)n1c(-c2ccc(OCC(F)(F)C(F)(F)F)nc2)nc2ccc(Cl)cc21 [Compound 1-13] |  | A (the corrected mortality rate is 100%.) | insecticidal efficacy (corrected mortality rate) activity level [1]: A (the corrected mortality rate is 100%.) |
| CCS(=O)(=O)n1c(-c2ccc(OCC(F)(F)C(F)(F)C(F)(F)F)nc2)nc2ccccc21 [Compound 1-20] | A (the control rate is 100%.) | A (the corrected mortality rate is 100%.) |  |
| CCS(=O)(=O)n1c(-c2ccc(SC3CCCC3)nc2)nc2ccccc21 [Compound 5-18] |  | A (the corrected mortality rate is 100%.) |  |
| CCCCSc1ccc(-c2nc3ccccc3n2S(=O)(=O)CC)cn1 [Compound 5-17] | A (the control rate is 100%.) |  |  |
| CCCS(=O)(=O)n1c(-c2ccc(OCC(F)(F)C(F)(F)F)nc2)nc2ccccc21 [Compound 1-4] |  | A (the corrected mortality rate is 100%.) |  |
| CCC[S+]([O-])c1ccc(-c2nc3ccccc3n2S(=O)(=O)CC)cn1 (stereo not shown) [Compound 5-15] | A (the control rate is 100%.) | A (the corrected mortality rate is 100%.) | insecticidal efficacy (corrected mortality rate) activity level [1]: A (the corrected mortality rate is 100%.) |
| CCS(=O)(=O)n1c(-c2cnc(OCC(F)(F)C(F)(F)F)c(Cl)c2)nc2ccccc21 [Compound 1-18] |  | A (the corrected mortality rate is 100%.) |  |
| CCS(=O)(=O)n1c(-c2ccc(OCC(F)(F)C(F)(F)C(F)(F)C(F)(F)C(F)(F)C(F)F)nc2)nc2ccccc21 [Compound 5-12] |  | A (the corrected mortality rate is 100%.) |  |

From patent US11311013B2, “Benzimidazole compound or salt thereof, agricultural and horticultural insecticidal and acaricidal agent containing said compound, and method for using same” (NIHON NOHYAKU CO., LTD., priority 2018, dated 2022)
